{
  "sequences": {"note": "By UniProt entry, the sequences of proteins in these tests, tags left out. Where a name states a change or a piece, a line headed by the entry shows the natural chain unless it says otherwise.", "UniProt P37231": "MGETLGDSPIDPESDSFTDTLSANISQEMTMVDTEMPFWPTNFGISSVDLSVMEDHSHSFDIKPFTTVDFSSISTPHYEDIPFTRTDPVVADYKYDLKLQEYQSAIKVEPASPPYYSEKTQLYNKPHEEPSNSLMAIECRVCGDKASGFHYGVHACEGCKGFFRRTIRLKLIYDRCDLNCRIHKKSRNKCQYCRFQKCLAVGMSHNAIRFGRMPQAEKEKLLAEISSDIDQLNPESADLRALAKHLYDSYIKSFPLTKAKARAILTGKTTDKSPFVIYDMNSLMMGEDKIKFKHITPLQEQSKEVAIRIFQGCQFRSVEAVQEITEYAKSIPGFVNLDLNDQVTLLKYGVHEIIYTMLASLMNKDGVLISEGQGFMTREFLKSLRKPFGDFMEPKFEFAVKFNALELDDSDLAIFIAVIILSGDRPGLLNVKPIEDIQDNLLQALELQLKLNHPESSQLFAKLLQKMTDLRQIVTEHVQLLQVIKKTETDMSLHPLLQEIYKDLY", "UniProt P17844": "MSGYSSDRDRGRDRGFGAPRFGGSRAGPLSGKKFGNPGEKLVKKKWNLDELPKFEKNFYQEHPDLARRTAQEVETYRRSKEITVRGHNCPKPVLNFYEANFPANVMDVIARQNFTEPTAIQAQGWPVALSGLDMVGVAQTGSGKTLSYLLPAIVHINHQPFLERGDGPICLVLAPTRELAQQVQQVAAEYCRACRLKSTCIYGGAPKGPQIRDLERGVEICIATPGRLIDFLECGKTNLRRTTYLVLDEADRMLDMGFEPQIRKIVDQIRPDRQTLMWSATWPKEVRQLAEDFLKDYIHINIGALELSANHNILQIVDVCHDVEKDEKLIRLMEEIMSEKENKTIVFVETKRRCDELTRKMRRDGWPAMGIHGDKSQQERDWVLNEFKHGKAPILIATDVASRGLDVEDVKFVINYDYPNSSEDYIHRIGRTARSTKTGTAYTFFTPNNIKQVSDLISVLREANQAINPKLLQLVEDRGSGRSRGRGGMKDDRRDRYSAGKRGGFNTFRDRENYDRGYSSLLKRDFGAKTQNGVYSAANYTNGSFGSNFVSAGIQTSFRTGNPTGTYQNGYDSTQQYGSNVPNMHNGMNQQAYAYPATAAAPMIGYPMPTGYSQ"},
  "source": "patent US20050244829A1",
  "about": "“Method of screening insulin resistance inproving drug” (priority 2002, published 2005)",
  "key": {"[1]": {"molecular_target": "GST-PPARγ-AF-1 fusion protein (human) (UniProt P37231)", "test": "GST pull-down; 35S-labeled in vitro translated p68 on gel-bound GST-PPARγ-AF-1, SDS-PAGE, imaging analyzer"}, "[2]": {"molecular_target": "GST-PPARγ-AF-1 fusion protein (human) (UniProt P37231)", "test": "GST pull-down (restated result of Example 1)"}},
  "note": "Results are given in words; binding and its absence hold for the method and conditions named. In cells and extracts the contact can be indirect. Some binding calls cover weakened binding; strength is not graded here.",
  "data": [
    {"substance": "full-length p68 RNA helicase protein, radio-labeled with radioactive methionine (in vitro translated from pSG5-p68) (from UniProt P17844 1-614) (enzyme)", "values": [
      {"measurement": "binding", "setting": "[1]", "result": "binds"},
      {"measurement": "binding", "setting": "[2]", "result": "binds"}
    ]}
  ]
}
